Like-named read-outs stand apart in the source and are kept apart here. Results are given in words; binding and its absence hold for the method and conditions named. Some entries that bind do so weakly or less than the wild type.
How the values were obtained:
Experiment in all cases: two-hybrid
[1] = molecular target: At-BSK7, yeast hybrid fusion (A. thaliana) (UniProt F4I3M3)
[2] = molecular target: At-BSK8, yeast hybrid fusion (A. thaliana) (UniProt Q9FHD7)
[3] = molecular target: At-BSK7, yeast hybrid fusion (A. thaliana) (UniProt F4I3M3); remark: listed apart in the source
[4] = molecular target: At-BSK8, yeast hybrid fusion (A. thaliana) (UniProt Q9FHD7); remark: listed apart in the source

The chains behind the UniProt entries cited, without tags or fusion partners.
UniProt F4I3M3: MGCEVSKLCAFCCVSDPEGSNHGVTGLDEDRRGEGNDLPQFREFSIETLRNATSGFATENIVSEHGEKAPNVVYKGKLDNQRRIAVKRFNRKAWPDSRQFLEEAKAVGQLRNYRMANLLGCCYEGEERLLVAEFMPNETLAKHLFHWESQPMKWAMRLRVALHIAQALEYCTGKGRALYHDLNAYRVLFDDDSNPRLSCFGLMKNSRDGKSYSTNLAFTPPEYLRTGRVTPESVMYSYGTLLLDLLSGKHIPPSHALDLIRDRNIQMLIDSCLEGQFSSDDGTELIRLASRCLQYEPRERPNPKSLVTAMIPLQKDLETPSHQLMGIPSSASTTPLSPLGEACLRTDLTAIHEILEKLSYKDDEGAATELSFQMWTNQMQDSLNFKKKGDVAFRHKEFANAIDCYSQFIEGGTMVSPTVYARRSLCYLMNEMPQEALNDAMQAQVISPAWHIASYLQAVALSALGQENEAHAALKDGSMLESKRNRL
UniProt Q9FHD7: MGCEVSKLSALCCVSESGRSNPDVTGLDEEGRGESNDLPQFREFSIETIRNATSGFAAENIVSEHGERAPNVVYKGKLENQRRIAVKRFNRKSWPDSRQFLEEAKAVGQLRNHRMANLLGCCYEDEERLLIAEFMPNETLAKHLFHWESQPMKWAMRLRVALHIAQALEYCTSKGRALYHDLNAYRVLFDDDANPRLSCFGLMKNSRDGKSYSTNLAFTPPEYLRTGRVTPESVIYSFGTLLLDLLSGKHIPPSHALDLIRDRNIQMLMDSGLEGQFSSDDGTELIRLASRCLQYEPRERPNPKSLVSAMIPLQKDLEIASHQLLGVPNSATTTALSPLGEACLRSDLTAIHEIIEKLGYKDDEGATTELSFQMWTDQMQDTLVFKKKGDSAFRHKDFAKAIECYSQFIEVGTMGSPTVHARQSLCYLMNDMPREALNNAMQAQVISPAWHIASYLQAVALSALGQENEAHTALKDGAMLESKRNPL

At-BSK7, yeast hybrid fusion (from UniProt F4I3M3 1-487)
binding [1]: binds

At-BSK8, yeast hybrid fusion (from UniProt Q9FHD7 1-487)
binding [1]: binds | binding [2]: binds

At-FLS2_CD^D997A, catalytically inactive cytoplasmic domain of At-FLS2, yeast hybrid prey (from UniProt Q9FL28 828-1173) (domain or fragment)
binding [3]: binds | binding [4]: binds | binding [1]: binds
